Results reported in publication PMC8816719.
Results are given in words; binding and its absence hold for the method and conditions named. In cells and extracts the contact can be indirect. Here binding means that the protein was enriched with, or labelled near, the bait; the list need not be complete. Each block holds one binder with its values, some of them ahead of it.

Chains of the proteins cited; added tags and fusions are not shown. Lines headed by an entry give the natural chain unless they say otherwise; changes in a name come on top. Residues count along the entry.
UniProt O95994, residues 21-175: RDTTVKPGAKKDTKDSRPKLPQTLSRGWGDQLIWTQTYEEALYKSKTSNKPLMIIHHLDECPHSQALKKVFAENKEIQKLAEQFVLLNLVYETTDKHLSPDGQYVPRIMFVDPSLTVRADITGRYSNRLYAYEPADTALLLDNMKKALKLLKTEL

Assays:
[1] = biological target: Anterior gradient 2 (AGR2), stably expressed in H1299-LZ4-AGR2 cells (human) (UniProt O95994); test: affinity purification with mass spectrometry; DSP-crosslinked H1299-AGR2 (heavy R10K8) and H1299 (light R0K0) lysates mixed 200 ug + 200 ug; overnight at 4 °C with biotinylated E7 peptide on streptavidin-agarose to capture AGR2 with its partners (F4 peptide as control); elution with 0.1 M glycine pH 2.5; LC-MS/MS with SILAC quantification
[2] = biological target: Anterior gradient 2 (AGR2), endogenous (human (endogenous in T47D, A549)) (UniProt O95994); test: affinity purification with mass spectrometry; T47D cells crosslinked in vivo with 0.6 mM DSP (control: no DSP); 400 ug lysate incubated overnight at 4 °C with biotinylated E7 peptide on streptavidin-agarose to capture endogenous AGR2 with its partners (F4 peptide as control); elution with 0.1 M glycine pH 2.5; LC-MS/MS with label-free quantification

binding [1]: binds | binding [2]: binds
B1: ribophorin 1 (RPN1) (protein, UniProt P04843 24-607)
chain: ASSEAPPLINEDVKRTVDLSSHLAKVTAEVVLAHLGGGSTSRATSFLLALEPELEARLAHLGVQVKGEDEEENNLEVRETKIKGKSGRFFTVKLPVALDPGAKISVIVETVYTHVLHPYPTQITQSEKQFVVFEGNHYFYSPYPTKTQTMRVKLASRNVESYTKLGNPTRSEDLLDYGPFRDVPAYSQDTFKVHYENNSPFLTITSMTRVIEVSHWGNIAVEENVDLKHTGAVLKGPFSRYDYQRQPDSGISSIRSFKTILPAAAQDVYYRDEIGNVSTSHLLILDDSVEMEIRPRFPLFGGWKTHYIVGYNLPSYEYLYNLGDQYALKMRFVDHVFDEQVIDSLTVKIILPEGAKNIEIDSPYEISRAPDELHYTYLDTFGRPVIVAYKKNLVEQHIQDIVVHYTFNKVLMLQEPLLVVAAFYILFFTVIIYVRLDFSITKDPAAEARMKVACITEQVLTLVNKRIGLYRHFDETVNRYKQSRDISTLNSGKKSLETEHKALTSEIALLQSRLKTEGSDLCDRVSEMQKLDAQVKELVLKSAVEAERLVAGKLKKDTYIENEKLISGKRQELVTKIDHILDAL

binding [1]: binds | binding [2]: binds
B2: MCCA (protein, UniProt Q96RQ3 42-725)
chain: TTATGRNITKVLIANRGEIACRVMRTAKKLGVQTVAVYSEADRNSMHVDMADEAYSIGPAPSQQSYLSMEKIIQVAKTSAAQAIHPGCGFLSENMEFAELCKQEGIIFIGPPPSAIRDMGIKSTSKSIMAAAGVPVVEGYHGEDQSDQCLKEHARRIGYPVMIKAVRGGGGKGMRIVRSEQEFQEQLESARREAKKSFNDDAMLIEKFVDTPRHVEVQVFGDHHGNAVYLFERDCSVQRRHQKIIEEAPAPGIKSEVRKKLGEAAVRAAKAVNYVGAGTVEFIMDSKHNFCFMEMNTRLQVEHPVTEMITGTDLVEWQLRIAAGEKIPLSQEEITLQGHAFEARIYAEDPSNNFMPVAGPLVHLSTPRADPSTRIETGVRQGDEVSVHYDPMIAKLVVWAADRQAALTKLRYSLRQYNIVGLHTNIDFLLNLSGHPEFEAGNVHTDFIPQHHKQLLLSRKAAAKESLCQAALGLILKEKAMTDTFTLQAHDQFSPFSSSSGRRLNISYTRNMTLKDGKNNVAIAVTYNHDGSYSMQIEDKTFQVLGNLYSEGDCTYLKCSVNGVASKAKLIILENTIYLFSKEGSIEIDIPVPKYLSSVSSQETQGGPLAPMTGTIEKVFVKAGDKVKAGDSLMVMIAMKMEHTIKSPKDGTVKKVFYREGAQANRHTPLVEFEEEESDKRESE

binding [1]: binds | binding [2]: binds
B3: propionyl-CoA carboxylase alpha chain (PCCA) (protein, UniProt P05165 53-728)
chain: SVGYDPNEKTFDKILVANRGEIACRVIRTCKKMGIKTVAIHSDVDASSVHVKMADEAVCVGPAPTSKSYLNMDAIMEAIKKTRAQAVHPGYGFLSENKEFARCLAAEDVVFIGPDTHAIQAMGDKIESKLLAKKAEVNTIPGFDGVVKDAEEAVRIAREIGYPVMIKASAGGGGKGMRIAWDDEETRDGFRLSSQEAASSFGDDRLLIEKFIDNPRHIEIQVLGDKHGNALWLNERECSIQRRNQKVVEEAPSIFLDAETRRAMGEQAVALARAVKYSSAGTVEFLVDSKKNFYFLEMNTRLQVEHPVTECITGLDLVQEMIRVAKGYPLRHKQADIRINGWAVECRVYAEDPYKSFGLPSIGRLSQYQEPLHLPGVRVDSGIQPGSDISIYYDPMISKLITYGSDRTEALKRMADALDNYVIRGVTHNIALLREVIINSRFVKGDISTKFLSDVYPDGFKGHMLTKSEKNQLLAIASSLFVAFQLRAQHFQENSRMPVIKPDIANWELSVKLHDKVHTVVASNNGSVFSVEVDGSKLNVTSTWNLASPLLSVSVDGTQRTVQCLSREAGGNMSIQFLGTVYKVNILTRLAAELNKFMLEKVTEDTSSVLRSPMPGVVVAVSVKPGDAVAEGQEICVIEAMKMQNSMTAGKTGTVKSVHCQAGDTVGEGDLLVELE

binding [1]: binds | binding [2]: binds
B4: arogenate dehydratase 3 (ADT3) (protein, UniProt P12236 1-298)
chain: MTEQAISFAKDFLAGGIAAAISKTAVAPIERVKLLLQVQHASKQIAADKQYKGIVDCIVRIPKEQGVLSFWRGNLANVIRYFPTQALNFAFKDKYKQIFLGGVDKHTQFWRYFAGNLASGGAAGATSLCFVYPLDFARTRLAADVGKSGTEREFRGLGDCLVKITKSDGIRGLYQGFSVSVQGIIIYRAAYFGVYDTAKGMLPDPKNTHIVVSWMIAQTVTAVAGVVSYPFDTVRRRMMMQSGRKGADIMYTGTVDCWRKIFRDEGGKAFFKGAWSNVLRGMGGAFVLVLYDELKKVI

binding [1]: binds | binding [2]: binds
B5: MCCB (protein, UniProt Q9HCC0 23-563)
chain: YHGDSVASLGTQPDLGSALYQENYKQMKALVNQLHERVEHIKLGGGEKARALHISRGKLLPRERIDNLIDPGSPFLELSQFAGYQLYDNEEVPGGGIITGIGRVSGVECMIIANDATVKGGAYYPVTVKKQLRAQEIAMQNRLPCIYLVDSGGAYLPRQADVFPDRDHFGRTFYNQAIMSSKNIAQIAVVMGSCTAGGAYVPAMADENIIVRKQGTIFLAGPPLVKAATGEEVSAEDLGGADLHCRKSGVSDHWALDDHHALHLTRKVVRNLNYQKKLDVTIEPSEEPLFPADELYGIVGANLKRSFDVREVIARIVDGSRFTEFKAFYGDTLVTGFARIFGYPVGIVGNNGVLFSESAKKGTHFVQLCCQRNIPLLFLQNITGFMVGREYEAEGIAKDGAKMVAAVACAQVPKITLIIGGSYGAGNYGMCGRAYSPRFLYIWPNARISVMGGEQAANVLATITKDQRAREGKQFSSADEAALKEPIIKKFEEEGNPYYSSARVWDDGIIDPADTRLVLGLSFSAALNAPIEKTDFGIFRM
